{
  "sequences": {"note": "By UniProt entry, the sequences of proteins in these tests, tags left out.", "UniProt Q64373": "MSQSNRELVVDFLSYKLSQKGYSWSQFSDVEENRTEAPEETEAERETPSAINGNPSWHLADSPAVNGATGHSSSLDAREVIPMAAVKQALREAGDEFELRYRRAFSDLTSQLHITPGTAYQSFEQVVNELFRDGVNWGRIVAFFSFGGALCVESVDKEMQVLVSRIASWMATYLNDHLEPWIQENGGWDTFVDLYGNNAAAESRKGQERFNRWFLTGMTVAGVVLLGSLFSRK", "UniProt O88597": "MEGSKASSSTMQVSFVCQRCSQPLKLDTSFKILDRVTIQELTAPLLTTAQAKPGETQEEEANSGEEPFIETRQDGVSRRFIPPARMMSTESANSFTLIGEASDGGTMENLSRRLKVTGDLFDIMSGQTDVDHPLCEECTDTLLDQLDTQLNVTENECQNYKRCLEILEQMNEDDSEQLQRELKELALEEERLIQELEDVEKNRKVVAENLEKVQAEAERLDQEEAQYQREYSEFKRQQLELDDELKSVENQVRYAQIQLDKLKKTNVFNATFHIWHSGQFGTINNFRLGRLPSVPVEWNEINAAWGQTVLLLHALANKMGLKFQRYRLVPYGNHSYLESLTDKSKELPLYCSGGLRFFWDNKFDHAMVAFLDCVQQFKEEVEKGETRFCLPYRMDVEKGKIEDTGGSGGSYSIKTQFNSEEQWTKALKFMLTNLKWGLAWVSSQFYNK"},
  "source": "paper doi:10.1101/2022.12.21.521514",
  "test_in_all_cases": "co-IP",
  "key": {"[1]": {"target": "BCL2L1 (mouse (endogenous in beige adipocytes from mouse IGW SVF cells)) (UniProt Q64373)"}, "[2]": {"target": "T1, p16^INK4a (mouse (endogenous in beige adipocytes from mouse IGW SVF cells)) (UniProt P51480)", "T1 sequence": "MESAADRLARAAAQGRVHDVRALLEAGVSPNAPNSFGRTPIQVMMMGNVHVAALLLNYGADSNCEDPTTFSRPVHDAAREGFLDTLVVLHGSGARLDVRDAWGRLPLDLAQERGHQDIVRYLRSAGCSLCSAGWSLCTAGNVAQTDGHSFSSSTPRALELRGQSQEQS"}, "[3]": {"target": "T2, p19^ARF (mouse (endogenous in beige adipocytes from mouse IGW SVF cells)) (UniProt Q64364)", "T2 sequence": "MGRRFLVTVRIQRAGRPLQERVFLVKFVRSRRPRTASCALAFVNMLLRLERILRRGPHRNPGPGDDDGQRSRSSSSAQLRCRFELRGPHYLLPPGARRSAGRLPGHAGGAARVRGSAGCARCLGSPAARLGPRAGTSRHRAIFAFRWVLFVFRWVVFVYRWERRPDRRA"}},
  "note": "These are yes or no findings as the source states them, for the method shown. In cells and extracts the contact can be indirect. Some entries that bind do so weakly or less than the wild type.",
  "data": [
    {"molecule": "BECN1 (from UniProt O88597 1-448)", "values": [
      {"measurement": "binding", "setting": "[1]", "value": "binds"},
      {"measurement": "binding", "setting": "[2]", "value": "no binding"},
      {"measurement": "binding", "setting": "[3]", "value": "binds"}
    ]},
    {"molecule": "BCL2L1 (from UniProt Q64373 1-233)", "values": [
      {"measurement": "binding", "setting": "[2]", "value": "no binding"},
      {"measurement": "binding", "setting": "[3]", "value": "binds"}
    ]},
    {"molecule": "p19^ARF (protein, UniProt Q64364 1-169) MGRRFLVTVRIQRAGRPLQERVFLVKFVRSRRPRTASCALAFVNMLLRLERILRRGPHRNPGPGDDDGQRSRSSSSAQLRCRFELRGPHYLLPPGARRSAGRLPGHAGGAARVRGSAGCARCLGSPAARLGPRAGTSRHRAIFAFRWVLFVFRWVVFVYRWERRPDRRA", "values": [
      {"measurement": "binding", "setting": "[1]", "value": "binds"}
    ]}
  ]
}
